Reference: patent publication US7888349B2, “Piperazine, [1,4]Diazepane, [1,4]Diazocane, and [1,5]Diazocane fused imidazo ring compounds” (3M Innovative Properties Company, priority 2003, dated 2011)
Where a name gives a salt, the structure may show the parent alone. Some results were stated once for a whole list of compounds, not compound by compound.

tested on: human peripheral blood mononuclear cells (PBMC); experiment: Cytokine Induction in Human Cells (interferon α and tumor necrosis factor α secreted into culture media); assay type: cell-based; settings: compounds generally tested at 30-0.014 μM, incubated 18 to 24 hours, ELISA of supernatant

Structure (SMILES)	induction of production of interferon α and/or tumor necrosis factor α
Nc1nc2ccccc2c2c1nc1n2CCCN(C(=O)N2CCOCC2)C1 [Example 309]	inducing the production of interferon α and/or tumor necrosis factor α
CS(=O)(=O)N1CCn2c(nc3c(N)nc4ccccc4c32)C1 [Example 5, 9-(Methylsulfonyl)-8,9,10,11-tetrahydropyrazino[1′,2′:1,2]imidazo[4,5-c]quinolin-6-amine trifluoroacetate]	inducing the production of interferon α and/or tumor necrosis factor α
Cc1ccc(CN2CCCn3c(nc4c(N)nc5ccccc5c43)C2)c(C)c1.O=C(O)C(F)(F)F [Example 135]	inducing the production of interferon α and/or tumor necrosis factor α
Nc1nc2ccccc2c2c1nc1n2CCN(Cc2ccccc2F)C1.O=C(O)C(F)(F)F [Example 28]	inducing the production of interferon α and/or tumor necrosis factor α
Nc1nc2ccccc2c2c1nc1n2CCCN(C(=O)C2CC2)C1.O=C(O)C(F)(F)F [Example 189]	inducing the production of interferon α and/or tumor necrosis factor α
CS(=O)(=O)N1CCn2c(nc3c(N)nc4cc(-c5ccsc5)ccc4c32)C1 [Example 389]	inducing the production of interferon α and/or tumor necrosis factor α
Nc1nc2ccccc2c2c1nc1n2CCCN(C(=O)Cc2ccccc2)C1.O=C(O)C(F)(F)F [Example 205]	inducing the production of interferon α and/or tumor necrosis factor α
Nc1nc2ccccc2c2c1nc1n2CCCN(C(=O)c2cccs2)C1.O=C(O)C(F)(F)F [Example 202]	inducing the production of interferon α and/or tumor necrosis factor α
Nc1nc2ccccc2c2c1nc1n2CCN(C(=O)NC2CCCCC2)C1 [Example 97]	inducing the production of interferon α and/or tumor necrosis factor α
Nc1nc2ccccc2c2c1nc1n2CCCN(Cc2ccc(Cl)cc2)C1.O=C(O)C(F)(F)F [Example 147]	inducing the production of interferon α and/or tumor necrosis factor α
Cc1ccc(NC(=O)N2CCn3c(nc4c(N)nc5ccccc5c43)C2)cc1 [Example 99]	inducing the production of interferon α and/or tumor necrosis factor α
CS(=O)(=O)N1CCCn2c(nc3c(N)nc4cc(-c5cccnc5)ccc4c32)C1 [Example 366, 9-(Methylsulfonyl)-3-pyridin-3-yl-9,10,11,12-tetrahydro-8H-[1,4]diazepino[1′,2′:1,2]imidazo[4,5-c]quinolin-6-amine]	inducing the production of interferon α and/or tumor necrosis factor α
Cc1cccc(C)c1-c1ccc2c(c1)nc(N)c1nc3n(c12)CCN(S(C)(=O)=O)C3 [Example 393]	inducing the production of interferon α and/or tumor necrosis factor α
COc1ccc(NC(=O)N2Cc3nc4c(N)nc5ccccc5c4n3CC(O)C2)cc1OC (centres unmarked) [Example 362]	inducing the production of interferon α and/or tumor necrosis factor α
Nc1nc2ccccc2c2c1nc1n2CCCN(C(=O)C2CCCC2)C1.O=C(O)C(F)(F)F [Example 196]	inducing the production of interferon α and/or tumor necrosis factor α
CC(C)C(=O)N1CCCn2c(nc3c(N)nc4ccccc4c32)C1.O=C(O)C(F)(F)F [Example 190]	inducing the production of interferon α and/or tumor necrosis factor α
Nc1nc2ccccc2c2c1nc1n2CCN(C(=O)Nc2ccccc2C(F)(F)F)C1 [Example 112]	inducing the production of interferon α and/or tumor necrosis factor α
COCC(=O)N1CCCn2c(nc3c(N)nc4ccccc4c32)C1.O=C(O)C(F)(F)F [Example 191]	inducing the production of interferon α and/or tumor necrosis factor α
Nc1nc2ccccc2c2c1nc1n2CCCN(S(=O)(=O)c2ccc(Cl)cc2)C1.O=C(O)C(F)(F)F [Example 266]	inducing the production of interferon α and/or tumor necrosis factor α
Cc1ccccc1-c1ccc2c(c1)nc(N)c1nc3n(c12)CCN(S(C)(=O)=O)C3 [Example 392]	inducing the production of interferon α and/or tumor necrosis factor α
Nc1nc2cc(OCc3ccccc3)ccc2c2c1nc1n2CCCN(Cc2ccccc2)C1 [Example 485]	inducing the production of interferon α and/or tumor necrosis factor α
Cc1ccccc1CN1CCn2c(nc3c(N)nc4ccccc4c32)C1.O=C(O)C(F)(F)F [Example 24]	inducing the production of interferon α and/or tumor necrosis factor α
CS(=O)(=O)N1CCn2c(nc3c(N)nc4cc(OCc5ccccc5)ccc4c32)C1 [Example 412]	inducing the production of interferon α and/or tumor necrosis factor α
Nc1nc2ccccc2c2c1nc1n2CCN(CCc2ccccc2)C1.O=C(O)C(F)(F)F [Example 26]	inducing the production of interferon α and/or tumor necrosis factor α

Structure (SMILES)	induction of production of interferon α and/or tumor necrosis factor α
CSc1ccc(CN2CCCn3c(nc4c(N)nc5ccccc5c43)C2)cc1.O=C(O)C(F)(F)F [Example 157]	inducing the production of interferon α and/or tumor necrosis factor α
CC(=O)OCC(=O)N1CCCn2c(nc3c(N)nc4ccccc4c32)C1.O=C(O)C(F)(F)F [Example 198]	inducing the production of interferon α and/or tumor necrosis factor α
CS(=O)(=O)N1CCn2c(nc3c(N)nc4cc(-c5ccncc5)ccc4c32)C1 [Example 388]	inducing the production of interferon α and/or tumor necrosis factor α
CCCCC(=O)N1CCCn2c(nc3c(N)nc4ccccc4c32)C1.O=C(O)C(F)(F)F [Example 193]	inducing the production of interferon α and/or tumor necrosis factor α
Nc1nc2ccccc2c2c1nc1n2CCN(Cc2ccc(F)cc2F)C1.O=C(O)C(F)(F)F [Example 44]	inducing the production of interferon α and/or tumor necrosis factor α
Nc1nc2ccccc2c2c1nc1n2CCN(Cc2ccncc2)C1.O=C(O)C(F)(F)F [Example 16]	inducing the production of interferon α and/or tumor necrosis factor α
Cc1cccc(NC(=O)N2CCn3c(nc4c(N)nc5ccccc5c43)C2)c1 [Example 98]	inducing the production of interferon α and/or tumor necrosis factor α
Cc1cccc(CN2CCCn3c(nc4c(N)nc5ccccc5c43)C2)c1 [Example 125]	inducing the production of interferon α and/or tumor necrosis factor α
Nc1nc2ccccc2c2c1nc1n2CCN(C(=O)Cc2ccccc2)C1.O=C(O)C(F)(F)F [Example 77]	inducing the production of interferon α and/or tumor necrosis factor α
Nc1nc2ccccc2c2c1nc1n2CCCN(C(=O)C2CCCCC2)C1.O=C(O)C(F)(F)F [Example 203]	inducing the production of interferon α and/or tumor necrosis factor α
CCCCCCCCN1CCCn2c(nc3c(N)nc4ccccc4c32)C1.O=C(O)C(F)(F)F [Example 133]	inducing the production of interferon α and/or tumor necrosis factor α
Nc1nc2ccccc2c2c1nc1n2CCCN(Cc2ccoc2)C1 [Example 115]	inducing the production of interferon α and/or tumor necrosis factor α
Nc1nc2ccccc2c2c1nc1n2CCN(Cc2ccccn2)C1.O=C(O)C(F)(F)F [Example 14]	inducing the production of interferon α and/or tumor necrosis factor α
CCCNC(=S)N1CCn2c(nc3c(N)nc(C)c(C)c32)C1 [Example 636]	inducing the production of interferon α and/or tumor necrosis factor α
CCOC(=O)CCNC(=O)N1CCn2c(nc3c(N)nc(C)c(C)c32)C1 [Example 644]	inducing the production of interferon α and/or tumor necrosis factor α
Nc1nc2ccccc2c2c1nc1n2CCN(C(=O)Nc2cccc(F)c2)C1 [Example 100]	inducing the production of interferon α and/or tumor necrosis factor α
Nc1nc2ccccc2c2c1nc1n2CCN(C(=O)c2c(Cl)cccc2Cl)C1 [Example 82]	inducing the production of interferon α and/or tumor necrosis factor α
Nc1nc2ccccc2c2c1nc1n2CCN(Cc2cccs2)C1.O=C(O)C(F)(F)F [Example 19]	inducing the production of interferon α and/or tumor necrosis factor α
Nc1nc2cc(OCc3ccccc3)ccc2c2c1nc1n2CCCN(Cc2ccc3ccccc3c2)C1 [Example 488]	inducing the production of interferon α and/or tumor necrosis factor α
Nc1nc2ccccc2c2c1nc1n2CCCN(Cc2ccc3ccccc3n2)C1.O=C(O)C(F)(F)F [Example 160]	inducing the production of interferon α and/or tumor necrosis factor α
Nc1nc2ccccc2c2c1nc1n2CCN(Cc2ccco2)C1.O=C(O)C(F)(F)F [Example 10]	inducing the production of interferon α and/or tumor necrosis factor α
CCCC(=O)N1CCCn2c(nc3c(N)nc(C)c(C)c32)C1 [Example 498]	inducing the production of interferon α and/or tumor necrosis factor α
Cc1ccc(C)c(CN2CCCn3c(nc4c(N)nc5ccccc5c43)C2)c1.O=C(O)C(F)(F)F [Example 136]	inducing the production of interferon α and/or tumor necrosis factor α
